Results published in paper doi:10.1101/2022.12.30.522300 (bioRxiv, 2022).
Results are given in words; binding and its absence hold for the method and conditions named. Binding can be weak; no strength is given. For some assays here: Where a sequence is shown, tags or fusion partners need not be part of it.

Legend:
[1] = target: T1, full-length SAP30BP, from pETM11 (human) (UniProt Q9UHR5); assay: NMR titration
T1 sequence: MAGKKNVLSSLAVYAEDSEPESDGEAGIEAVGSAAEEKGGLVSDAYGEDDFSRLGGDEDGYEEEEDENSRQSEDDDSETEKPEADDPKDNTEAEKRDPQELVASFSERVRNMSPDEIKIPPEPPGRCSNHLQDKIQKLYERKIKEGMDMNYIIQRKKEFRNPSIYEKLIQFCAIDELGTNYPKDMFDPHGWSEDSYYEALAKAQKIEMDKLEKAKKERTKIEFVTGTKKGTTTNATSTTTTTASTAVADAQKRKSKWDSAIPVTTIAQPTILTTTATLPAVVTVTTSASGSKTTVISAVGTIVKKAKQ

GST-RBM17 = target: T2, GST-RBM17 (human, UniProt Q96I25 1-401); assay: pull-down
T2 sequence (looked up): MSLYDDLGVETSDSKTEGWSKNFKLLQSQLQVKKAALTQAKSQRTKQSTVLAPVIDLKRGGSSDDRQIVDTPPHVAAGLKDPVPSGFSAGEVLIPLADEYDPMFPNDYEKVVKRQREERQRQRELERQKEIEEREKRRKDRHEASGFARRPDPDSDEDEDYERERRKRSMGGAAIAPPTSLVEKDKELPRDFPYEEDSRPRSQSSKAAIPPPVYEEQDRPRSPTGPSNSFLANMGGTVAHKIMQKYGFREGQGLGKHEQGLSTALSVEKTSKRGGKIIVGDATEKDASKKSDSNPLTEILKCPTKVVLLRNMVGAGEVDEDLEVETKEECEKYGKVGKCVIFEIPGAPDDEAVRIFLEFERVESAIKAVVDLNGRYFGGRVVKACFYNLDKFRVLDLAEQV

[2] = target: full-length SAP30BP with mutation in the ULM, from pETM11 (human) (UniProt Q9UHR5); assay: NMR titration

For “RBM17–UHM (RBM17/ΔNΔG), from pETM11 (human) (domain or fragment)”, the binding [1] was “binds”.

“SAP30BP/ΔC (GST tag removed) (human) (domain or fragment)” was tested, and the binding (GST-RBM17) was “no binding”.

With “SAP30BP/ΔN (GST tag removed) (human) (domain or fragment)” the binding (GST-RBM17) was “binds”.

“SAP30BP/ΔNΔC (GST tag removed) (human) (domain or fragment)” was tested, and the binding (GST-RBM17) was “no binding”.

B1: full-length RBM17, from pETM11 (protein, UniProt Q96I25 1-401)
chain: T2 sequence (looked up)
With B1 the binding [2] was “binds”.
